Measured values: article PMC10852281
No constants are given. Whether binding was seen depends on the method and setting. Binding seen in cells or lysates may run through a third protein. Some results given as binding are weak or reduced against the parent protein; the word gives no strength. For some of these results: Where a sequence is shown, tags or fusion partners need not be part of it.

Legend:
HA-TXNIP-C247S = molecular target: T1, HA-TXNIP-C247S (UniProt Q9H3M7); test: co-IP; HEK293T cells transfected; HA-IP of HA-TXNIP constructs overnight at 4°C, protein A/G resin, washed 3 times with lysis buffer ('1% NP40 lysis buffer': 20 mM Tris7.5, 150 mM NaCl, 1% SDS, 1% deoxycholate); Western blot; in Fig 6I-J cells treated with H2O2 (30 μM, 300 μM, 1.5 mM) or NAC (2.5 μM, 5 μM, 10 μM) for 4 hrs
T1 sequence: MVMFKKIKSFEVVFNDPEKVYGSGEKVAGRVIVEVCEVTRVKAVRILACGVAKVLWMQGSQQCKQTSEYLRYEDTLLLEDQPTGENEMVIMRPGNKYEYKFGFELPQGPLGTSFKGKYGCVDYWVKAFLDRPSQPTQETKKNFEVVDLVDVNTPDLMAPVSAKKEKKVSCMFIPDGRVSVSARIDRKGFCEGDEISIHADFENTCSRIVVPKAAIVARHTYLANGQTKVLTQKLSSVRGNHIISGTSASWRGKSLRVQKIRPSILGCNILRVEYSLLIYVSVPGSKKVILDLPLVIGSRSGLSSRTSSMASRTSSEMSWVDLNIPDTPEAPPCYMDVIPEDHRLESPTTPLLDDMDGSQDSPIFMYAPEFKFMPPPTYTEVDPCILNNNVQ

[1] = molecular target: T2, HA-TXNIP (thioredoxin-interacting protein, wild type), Q9H3M7; test: as above; settings: remark: other sources report otherwise
T2 chain: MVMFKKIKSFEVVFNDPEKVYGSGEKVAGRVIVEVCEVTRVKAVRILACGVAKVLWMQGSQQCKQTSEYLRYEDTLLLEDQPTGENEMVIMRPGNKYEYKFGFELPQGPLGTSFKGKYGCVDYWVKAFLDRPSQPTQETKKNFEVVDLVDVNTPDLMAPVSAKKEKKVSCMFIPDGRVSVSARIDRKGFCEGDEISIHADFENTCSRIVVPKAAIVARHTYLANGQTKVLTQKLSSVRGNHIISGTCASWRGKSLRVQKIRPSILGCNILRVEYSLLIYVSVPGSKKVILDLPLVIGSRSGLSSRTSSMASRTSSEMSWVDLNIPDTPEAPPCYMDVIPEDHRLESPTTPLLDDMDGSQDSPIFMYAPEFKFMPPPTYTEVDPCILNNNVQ

[2] = molecular target: T3, TXNIP (construct not told; SiMPull assay and the tests of Fig 2B / S2B Fig), Q9H3M7; test: single-molecule pull-down (SiMPull); protein complexes from lysed cells immobilised onto a coverslip, analysed with a total internal reflection fluorescence microscope; settings: remark: other sources report otherwise
T3 chain: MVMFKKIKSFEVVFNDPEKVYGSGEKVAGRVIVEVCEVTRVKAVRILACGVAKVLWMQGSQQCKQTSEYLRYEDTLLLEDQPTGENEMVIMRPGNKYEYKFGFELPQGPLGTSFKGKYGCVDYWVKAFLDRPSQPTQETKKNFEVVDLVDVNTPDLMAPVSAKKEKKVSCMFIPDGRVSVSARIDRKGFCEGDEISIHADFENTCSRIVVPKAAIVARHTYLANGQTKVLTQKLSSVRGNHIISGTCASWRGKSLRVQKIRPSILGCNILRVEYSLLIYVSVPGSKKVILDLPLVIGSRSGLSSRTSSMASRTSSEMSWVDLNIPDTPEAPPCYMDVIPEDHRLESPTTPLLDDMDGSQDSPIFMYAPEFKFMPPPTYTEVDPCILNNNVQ

[3] = molecular target: T4, HA-TXNIP (thioredoxin-interacting protein, wild type) (UniProt Q9H3M7); test: co-IP; HEK293T cells transfected; HA-IP of HA-TXNIP constructs overnight at 4°C, protein A/G resin, washed 3 times with lysis buffer ('1% NP40 lysis buffer': 20 mM Tris7.5, 150 mM NaCl, 1% SDS, 1% deoxycholate); Western blot; in Fig 6I-J cells treated with H2O2 (30 μM, 300 μM, 1.5 mM) or NAC (2.5 μM, 5 μM, 10 μM) for 4 hrs
T4 sequence: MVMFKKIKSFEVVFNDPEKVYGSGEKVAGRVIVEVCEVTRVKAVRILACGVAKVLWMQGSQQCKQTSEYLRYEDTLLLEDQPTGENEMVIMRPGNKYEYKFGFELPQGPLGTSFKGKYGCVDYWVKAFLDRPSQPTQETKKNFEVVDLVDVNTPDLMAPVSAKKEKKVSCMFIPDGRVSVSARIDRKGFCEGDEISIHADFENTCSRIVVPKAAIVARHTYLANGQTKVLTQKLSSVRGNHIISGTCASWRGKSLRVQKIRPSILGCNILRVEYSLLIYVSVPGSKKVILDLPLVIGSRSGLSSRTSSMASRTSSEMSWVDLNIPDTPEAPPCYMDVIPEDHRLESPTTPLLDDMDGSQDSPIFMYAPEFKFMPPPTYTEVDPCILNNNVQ

TXNIP-VN (BiFC fusion) = TXNIP-VN (BiFC fusion) (UniProt Q9H3M7); test: split reporter; BiFC; HeLa cells co-expressing VN and VC fusions, green fluorescent signal by confocal microscopy, cells fixed with 4% PFA
[4] = molecular target: T5, TXNIP-VN (BiFC fusion), Q9H3M7; test: as above; settings: remark: other sources report otherwise
T5 chain: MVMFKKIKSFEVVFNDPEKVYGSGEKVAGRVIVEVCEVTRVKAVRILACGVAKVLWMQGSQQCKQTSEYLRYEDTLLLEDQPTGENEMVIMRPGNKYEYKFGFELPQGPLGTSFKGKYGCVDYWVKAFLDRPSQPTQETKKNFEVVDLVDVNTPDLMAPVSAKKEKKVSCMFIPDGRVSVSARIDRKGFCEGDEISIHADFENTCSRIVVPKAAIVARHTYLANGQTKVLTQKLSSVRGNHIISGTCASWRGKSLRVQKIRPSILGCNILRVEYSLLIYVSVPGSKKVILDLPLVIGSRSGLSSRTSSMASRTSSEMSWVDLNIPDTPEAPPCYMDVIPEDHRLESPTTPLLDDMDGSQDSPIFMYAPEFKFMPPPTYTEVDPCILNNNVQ

GLUT1 (no tag named) (from UniProt P11166 1-492)
binding (HA-TXNIP-C247S): binds

B1: GLUT1-GFP, P11166 1-492 (protein)
chain: MEPSSKKLTGRLMLAVGGAVLGSLQFGYNTGVINAPQKVIEEFYNQTWVHRYGESILPTTLTTLWSLSVAIFSVGGMIGSFSVGLFVNRFGRRNSMLMMNLLAFVSAVLMGFSKLGKSFEMLILGRFIIGVYCGLTTGFVPMYVGEVSPTALRGALGTLHQLGIVVGILIAQVFGLDSIMGNKDLWPLLLSIIFIPALLQCIVLPFCPESPRFLLINRNEENRAKSVLKKLRGTADVTHDLQEMKEESRQMMREKKVTILELFRSPAYRQPILIAVVLQLSQQLSGINAVFYYSTSIFEKAGVQQPVYATIGSGIVNTAFTVVSLFVVERAGRRTLHLIGLAGMAGCAILMTIALALLEQLPWMSYLSIVAIFGFVAFFEVGPGPIPWFIVAELFSQGPRPAAIAVAGFSNWTSNFIVGMCFQYVEQLCGPYVFIIFTVLLVLFFIFTYFKVPETKGRTFDEIASGFRQGGASQSDKTPEELFHPLGADSQV
binding [1]: binds

B2: GLUT1 (construct not told; SiMPull assay), P11166 1-492 (protein)
chain: MEPSSKKLTGRLMLAVGGAVLGSLQFGYNTGVINAPQKVIEEFYNQTWVHRYGESILPTTLTTLWSLSVAIFSVGGMIGSFSVGLFVNRFGRRNSMLMMNLLAFVSAVLMGFSKLGKSFEMLILGRFIIGVYCGLTTGFVPMYVGEVSPTALRGALGTLHQLGIVVGILIAQVFGLDSIMGNKDLWPLLLSIIFIPALLQCIVLPFCPESPRFLLINRNEENRAKSVLKKLRGTADVTHDLQEMKEESRQMMREKKVTILELFRSPAYRQPILIAVVLQLSQQLSGINAVFYYSTSIFEKAGVQQPVYATIGSGIVNTAFTVVSLFVVERAGRRTLHLIGLAGMAGCAILMTIALALLEQLPWMSYLSIVAIFGFVAFFEVGPGPIPWFIVAELFSQGPRPAAIAVAGFSNWTSNFIVGMCFQYVEQLCGPYVFIIFTVLLVLFFIFTYFKVPETKGRTFDEIASGFRQGGASQSDKTPEELFHPLGADSQV
binding [2]: binds

B3: GLUT3-GFP (protein, UniProt P11169 1-496)
chain: MGTQKVTPALIFAITVATIGSFQFGYNTGVINAPEKIIKEFINKTLTDKGNAPPSEVLLTSLWSLSVAIFSVGGMIGSFSVGLFVNRFGRRNSMLIVNLLAVTGGCFMGLCKVAKSVEMLILGRLVIGLFCGLCTGFVPMYIGEISPTALRGAFGTLNQLGIVVGILVAQIFGLEFILGSEELWPLLLGFTILPAILQSAALPFCPESPRFLLINRKEEENAKQILQRLWGTQDVSQDIQEMKDESARMSQEKQVTVLELFRVSSYRQPIIISIVLQLSQQLSGINAVFYYSTGIFKDAGVQEPIYATIGAGVVNTIFTVVSLFLVERAGRRTLHMIGLGGMAFCSTLMTVSLLLKDNYNGMSFVCIGAILVFVAFFEIGPGPIPWFIVAELFSQGPRPAAMAVAGCSNWTSNFLVGLLFPSAAHYLGAYVFIIFTGFLITFLAFTFFKVPETRGRTFEDITRAFEGQAHGADRSGKDGVMEMNSIEPAKETTTNV
binding [3]: binds

B4: GLUT4-GFP (protein, UniProt P14672 1-509)
chain: MPSGFQQIGSEDGEPPQQRVTGTLVLAVFSAVLGSLQFGYNIGVINAPQKVIEQSYNETWLGRQGPEGPSSIPPGTLTTLWALSVAIFSVGGMISSFLIGIISQWLGRKRAMLVNNVLAVLGGSLMGLANAAASYEMLILGRFLIGAYSGLTSGLVPMYVGEIAPTHLRGALGTLNQLAIVIGILIAQVLGLESLLGTASLWPLLLGLTVLPALLQLVLLPFCPESPRYLYIIQNLEGPARKSLKRLTGWADVSGVLAELKDEKRKLERERPLSLLQLLGSRTHRQPLIIAVVLQLSQQLSGINAVFYYSTSIFETAGVGQPAYATIGAGVVNTVFTLVSVLLVERAGRRTLHLLGLAGMCGCAILMTVALLLLERVPAMSYVSIVAIFGFVAFFEIGPGPIPWFIVAELFSQGPRPAAMAVAGFSNWTSNFIIGMGFQYVAEAMGPYVFLLFAVLLLGFFIFTFLRVPETRGRTFDQISAAFHRTPSLLEQEVKPSTELEYLGPDEND
binding [3]: binds

B5: TXNIP-VN (BiFC fusion) (protein, UniProt Q9H3M7 1-391)
chain: MVMFKKIKSFEVVFNDPEKVYGSGEKVAGRVIVEVCEVTRVKAVRILACGVAKVLWMQGSQQCKQTSEYLRYEDTLLLEDQPTGENEMVIMRPGNKYEYKFGFELPQGPLGTSFKGKYGCVDYWVKAFLDRPSQPTQETKKNFEVVDLVDVNTPDLMAPVSAKKEKKVSCMFIPDGRVSVSARIDRKGFCEGDEISIHADFENTCSRIVVPKAAIVARHTYLANGQTKVLTQKLSSVRGNHIISGTCASWRGKSLRVQKIRPSILGCNILRVEYSLLIYVSVPGSKKVILDLPLVIGSRSGLSSRTSSMASRTSSEMSWVDLNIPDTPEAPPCYMDVIPEDHRLESPTTPLLDDMDGSQDSPIFMYAPEFKFMPPPTYTEVDPCILNNNVQ
binding (TXNIP-VN (BiFC fusion)): binds

B6: GLUT1-VC (BiFC fusion), P11166 1-492 (protein)
chain: MEPSSKKLTGRLMLAVGGAVLGSLQFGYNTGVINAPQKVIEEFYNQTWVHRYGESILPTTLTTLWSLSVAIFSVGGMIGSFSVGLFVNRFGRRNSMLMMNLLAFVSAVLMGFSKLGKSFEMLILGRFIIGVYCGLTTGFVPMYVGEVSPTALRGALGTLHQLGIVVGILIAQVFGLDSIMGNKDLWPLLLSIIFIPALLQCIVLPFCPESPRFLLINRNEENRAKSVLKKLRGTADVTHDLQEMKEESRQMMREKKVTILELFRSPAYRQPILIAVVLQLSQQLSGINAVFYYSTSIFEKAGVQQPVYATIGSGIVNTAFTVVSLFVVERAGRRTLHLIGLAGMAGCAILMTIALALLEQLPWMSYLSIVAIFGFVAFFEVGPGPIPWFIVAELFSQGPRPAAIAVAGFSNWTSNFIVGMCFQYVEQLCGPYVFIIFTVLLVLFFIFTYFKVPETKGRTFDEIASGFRQGGASQSDKTPEELFHPLGADSQV
binding [4]: binds
